Results are given in words; binding and its absence hold for the method and conditions named. Some results given as binding are weak or reduced against the parent protein; the word gives no strength.
Tests used:
Assay in all cases: peptide or protein array; HuProt human proteome microarray; 5 ug/5 ml biotin-labelled LUBAC or OTULIN in solution, 1 h at room temperature; Cy5-streptavidin, scanned at 635 nm; BSA as negative control; hits: Z-score >= 3 and I_(Mean_Ratio) >= 1.4; both purified
[1] = target: T1, OPHN1 (human) (UniProt O60890)
T1 sequence: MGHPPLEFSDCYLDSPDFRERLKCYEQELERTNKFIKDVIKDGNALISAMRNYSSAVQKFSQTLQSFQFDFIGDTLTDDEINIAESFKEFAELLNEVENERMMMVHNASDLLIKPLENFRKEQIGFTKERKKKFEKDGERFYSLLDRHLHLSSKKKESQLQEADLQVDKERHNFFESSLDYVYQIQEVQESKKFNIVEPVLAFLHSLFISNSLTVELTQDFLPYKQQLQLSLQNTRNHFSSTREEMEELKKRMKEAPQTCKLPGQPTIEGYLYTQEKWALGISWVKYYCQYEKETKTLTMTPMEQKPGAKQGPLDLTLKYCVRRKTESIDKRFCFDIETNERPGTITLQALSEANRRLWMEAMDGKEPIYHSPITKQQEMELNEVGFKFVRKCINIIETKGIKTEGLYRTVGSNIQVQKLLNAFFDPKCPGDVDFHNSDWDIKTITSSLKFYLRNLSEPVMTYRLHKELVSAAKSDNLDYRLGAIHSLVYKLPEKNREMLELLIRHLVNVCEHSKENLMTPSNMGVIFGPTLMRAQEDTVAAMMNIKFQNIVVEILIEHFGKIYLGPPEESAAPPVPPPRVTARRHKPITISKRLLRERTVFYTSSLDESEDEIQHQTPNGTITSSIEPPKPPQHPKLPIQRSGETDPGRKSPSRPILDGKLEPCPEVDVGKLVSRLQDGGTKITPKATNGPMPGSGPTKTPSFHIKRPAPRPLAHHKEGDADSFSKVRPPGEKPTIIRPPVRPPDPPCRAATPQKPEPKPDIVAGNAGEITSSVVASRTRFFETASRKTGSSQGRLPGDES

Chains of the proteins cited; added tags and fusions are not shown.
UniProt P22392: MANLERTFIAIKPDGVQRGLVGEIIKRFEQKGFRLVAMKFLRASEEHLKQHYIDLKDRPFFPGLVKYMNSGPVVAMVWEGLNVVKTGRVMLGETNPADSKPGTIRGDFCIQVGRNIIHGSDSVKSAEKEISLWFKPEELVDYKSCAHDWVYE

[2] = target: NME2 (human) (UniProt P22392)
[3] = target: T2, C1orf94 (human) (UniProt Q6P1W5)
T2 sequence: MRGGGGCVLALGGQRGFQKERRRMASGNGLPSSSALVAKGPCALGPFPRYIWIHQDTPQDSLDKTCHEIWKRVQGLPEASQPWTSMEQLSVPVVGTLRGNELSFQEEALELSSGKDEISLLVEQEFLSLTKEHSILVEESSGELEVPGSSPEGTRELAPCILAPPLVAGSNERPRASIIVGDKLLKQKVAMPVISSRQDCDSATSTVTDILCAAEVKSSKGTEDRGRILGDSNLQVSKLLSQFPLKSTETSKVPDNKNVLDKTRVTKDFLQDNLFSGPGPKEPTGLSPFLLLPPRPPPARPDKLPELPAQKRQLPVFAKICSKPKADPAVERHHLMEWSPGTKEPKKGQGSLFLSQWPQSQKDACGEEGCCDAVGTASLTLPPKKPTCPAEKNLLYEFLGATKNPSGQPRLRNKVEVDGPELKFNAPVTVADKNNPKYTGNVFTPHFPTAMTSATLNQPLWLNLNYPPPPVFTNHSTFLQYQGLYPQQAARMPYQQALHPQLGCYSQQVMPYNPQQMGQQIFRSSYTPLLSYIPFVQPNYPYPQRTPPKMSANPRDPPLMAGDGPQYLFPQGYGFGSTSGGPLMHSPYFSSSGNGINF

[4] = target: T3, SCEL (human) (UniProt O95171)
T3 sequence: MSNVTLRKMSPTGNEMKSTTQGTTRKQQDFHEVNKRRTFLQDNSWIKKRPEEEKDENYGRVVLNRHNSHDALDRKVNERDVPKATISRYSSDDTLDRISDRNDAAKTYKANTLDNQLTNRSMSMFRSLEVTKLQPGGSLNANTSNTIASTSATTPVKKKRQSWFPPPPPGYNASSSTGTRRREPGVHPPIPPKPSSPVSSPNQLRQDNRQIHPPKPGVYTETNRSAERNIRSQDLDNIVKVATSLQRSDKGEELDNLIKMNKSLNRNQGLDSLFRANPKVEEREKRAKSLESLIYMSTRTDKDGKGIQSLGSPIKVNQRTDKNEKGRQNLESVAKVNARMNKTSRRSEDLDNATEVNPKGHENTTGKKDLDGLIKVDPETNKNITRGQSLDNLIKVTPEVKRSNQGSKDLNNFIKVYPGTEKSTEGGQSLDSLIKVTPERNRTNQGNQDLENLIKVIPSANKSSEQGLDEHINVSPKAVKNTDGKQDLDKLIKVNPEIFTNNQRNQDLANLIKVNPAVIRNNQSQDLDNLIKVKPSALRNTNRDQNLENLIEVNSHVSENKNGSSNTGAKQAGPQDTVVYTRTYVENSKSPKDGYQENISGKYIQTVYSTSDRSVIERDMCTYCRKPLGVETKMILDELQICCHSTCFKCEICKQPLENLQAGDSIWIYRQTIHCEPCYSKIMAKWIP

binding [1]: binds
binding [2]: binds
binding [3]: binds
binding [4]: binds
Substance: linear ubiquitin chain assembly complex (LUBAC), purified as HIS-tagged HOIP with the subunit HOIL-1, biotin-labelled (from UniProt Q96EP0 1-1072; Q9BYM8 1-510)

— PMC8274477
